These are yes or no findings as the source states them, for the method shown. Binding seen in cells or lysates may run through a third protein. Some entries that bind do so weakly or less than the wild type. For part of these data: Where a sequence is shown, tags or fusion partners need not be part of it.
T1: SFB-USP8 (human) (UniProt P40818)
T1 sequence: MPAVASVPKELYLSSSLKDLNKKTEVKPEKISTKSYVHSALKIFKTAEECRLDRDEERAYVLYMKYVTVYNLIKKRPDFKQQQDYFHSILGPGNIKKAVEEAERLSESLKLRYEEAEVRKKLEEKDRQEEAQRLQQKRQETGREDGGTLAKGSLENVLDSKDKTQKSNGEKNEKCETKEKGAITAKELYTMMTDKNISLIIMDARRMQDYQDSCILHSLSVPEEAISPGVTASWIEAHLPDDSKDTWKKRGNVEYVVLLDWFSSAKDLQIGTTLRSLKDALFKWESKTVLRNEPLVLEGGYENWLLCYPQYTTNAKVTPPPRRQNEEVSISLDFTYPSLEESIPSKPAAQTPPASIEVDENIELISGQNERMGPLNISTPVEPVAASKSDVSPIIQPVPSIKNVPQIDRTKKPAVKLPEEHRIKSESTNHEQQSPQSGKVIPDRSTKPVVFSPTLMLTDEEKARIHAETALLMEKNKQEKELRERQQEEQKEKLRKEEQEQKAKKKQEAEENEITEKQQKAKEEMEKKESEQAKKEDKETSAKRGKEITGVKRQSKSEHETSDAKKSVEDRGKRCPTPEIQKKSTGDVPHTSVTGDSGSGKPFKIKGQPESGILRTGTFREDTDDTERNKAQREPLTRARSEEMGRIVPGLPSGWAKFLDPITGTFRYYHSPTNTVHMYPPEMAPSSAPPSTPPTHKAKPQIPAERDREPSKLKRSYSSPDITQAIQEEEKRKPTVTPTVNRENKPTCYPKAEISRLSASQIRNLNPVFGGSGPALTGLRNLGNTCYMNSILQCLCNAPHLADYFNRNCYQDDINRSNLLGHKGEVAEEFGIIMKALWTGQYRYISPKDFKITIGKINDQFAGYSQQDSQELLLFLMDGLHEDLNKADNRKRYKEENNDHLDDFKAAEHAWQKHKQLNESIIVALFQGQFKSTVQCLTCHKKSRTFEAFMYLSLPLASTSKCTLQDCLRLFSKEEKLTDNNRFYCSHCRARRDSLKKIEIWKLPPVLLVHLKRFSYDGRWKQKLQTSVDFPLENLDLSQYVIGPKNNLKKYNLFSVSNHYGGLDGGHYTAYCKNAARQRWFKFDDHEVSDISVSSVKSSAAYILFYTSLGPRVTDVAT

T2: USP8 (construct of the supplementary figures not shown) (human) (UniProt P40818)
T2 sequence: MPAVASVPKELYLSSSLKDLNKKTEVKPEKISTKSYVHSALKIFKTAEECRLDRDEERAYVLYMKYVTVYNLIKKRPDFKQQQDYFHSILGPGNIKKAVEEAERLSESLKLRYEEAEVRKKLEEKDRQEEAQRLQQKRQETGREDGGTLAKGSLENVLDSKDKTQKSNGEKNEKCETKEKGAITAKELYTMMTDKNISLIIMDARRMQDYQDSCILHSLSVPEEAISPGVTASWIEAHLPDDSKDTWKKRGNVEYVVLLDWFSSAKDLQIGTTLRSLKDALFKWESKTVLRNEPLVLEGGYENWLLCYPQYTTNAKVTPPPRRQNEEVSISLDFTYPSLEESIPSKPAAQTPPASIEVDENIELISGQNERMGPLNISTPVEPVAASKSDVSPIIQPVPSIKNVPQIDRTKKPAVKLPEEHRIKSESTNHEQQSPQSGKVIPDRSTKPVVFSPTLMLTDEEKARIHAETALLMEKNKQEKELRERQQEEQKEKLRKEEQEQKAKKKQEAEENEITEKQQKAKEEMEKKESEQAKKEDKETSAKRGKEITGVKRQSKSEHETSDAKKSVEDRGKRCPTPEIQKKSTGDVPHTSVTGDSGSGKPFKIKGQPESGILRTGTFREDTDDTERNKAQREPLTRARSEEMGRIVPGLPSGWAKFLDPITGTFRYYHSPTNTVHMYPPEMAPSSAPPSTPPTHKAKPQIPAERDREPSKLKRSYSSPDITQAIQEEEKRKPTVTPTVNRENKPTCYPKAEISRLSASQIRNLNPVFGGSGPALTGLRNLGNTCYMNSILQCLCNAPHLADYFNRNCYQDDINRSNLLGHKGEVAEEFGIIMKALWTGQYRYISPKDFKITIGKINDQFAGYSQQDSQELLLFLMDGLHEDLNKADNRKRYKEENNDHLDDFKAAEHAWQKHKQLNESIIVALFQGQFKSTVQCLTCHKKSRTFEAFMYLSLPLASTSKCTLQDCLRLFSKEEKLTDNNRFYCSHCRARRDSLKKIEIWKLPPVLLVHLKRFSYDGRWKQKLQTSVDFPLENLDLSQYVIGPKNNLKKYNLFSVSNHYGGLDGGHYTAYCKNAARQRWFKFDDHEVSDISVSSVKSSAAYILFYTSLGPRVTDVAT


Columns and labels:
SFB-USP8 (human) [1] = target: T1, SFB-USP8 (human); experiment: pull-down; HEK293T cells co-transfected; NP-40 lysis buffer (20 mM Tris-HCl pH 8.0, 150 mM NaCl, 1% NP-40, 10% glycerol, 2 mM EDTA); S-protein agarose at 4 °C overnight; immunoblot
SFB-USP8 (human) [2] = target: T1, SFB-USP8 (human); experiment: co-IP; HEK293T cells transfected with USP8, MDA5 and empty vector or the indicated dose of HA-AKT1; NP-40 lysis buffer; Anti-Myc or S-protein agarose at 4 °C overnight
[3] = target: T2, USP8 (construct of the supplementary figures not shown) (human); experiment: co-IP; with or without EMCV infection; cells, baits and constructs not shown (Figure S5A,E)

| binding (SFB-USP8 (human) [1]) | binding (SFB-USP8 (human) [2]) | binding [3] | Binder |
| --- | --- | --- | --- |
| binds | binds |  | Myc-MDA5 (protein, UniProt Q9BYX4 1-1025) MSNGYSTDENFRYLISCFRARVKMYIQVEPVLDYLTFLPAEVKEQIQRTVATSGNMQAVELLLSTLEKGVWHLGWTREFVEALRRTGSPLAARYMNPELTDLPSPSFENAHDEYLQLLNLLQPTLVDKLLVRDVLDKCMEEELLTIEDRNRIAAAENNGNESGVRELLKRIVQKENWFSAFLNVLRQTGNNELVQELTGSDCSESNAEIENLSQVDGPQVEEQLLSTTVQPNLEKEVWGMENNSSESSFADSSVVSESDTSLAEGSVSCLDESLGHNSNMGSDSGTMGSDSDEENVAARASPEPELQLRPYQMEVAQPALEGKNIIICLPTGSGKTRVAVYIAKDHLDKKKKASEPGKVIVLVNKVLLVEQLFRKEFQPFLKKWYRVIGLSGDTQLKISFPEVVKSCDIIISTAQILENSLLNLENGEDAGVQLSDFSLIIIDECHHTNKEAVYNNIMRHYLMQKLKNNRLKKENKPVIPLPQILGLTASPGVGGATKQAKAEEHILKLCANLDAFTIKTVKENLDQLKNQIQEPCKKFAIADATREDPFKEKLLEIMTRIQTYCQMSPMSDFGTQPYEQWAIQMEKKAAKEGNRKERVCAEHLRKYNEALQINDTIRMIDAYTHLETFYNEEKDKKFAVIEDDSDEGGDDEYCDGDEDEDDLKKPLKLDETDRFLMTLFFENNKMLKRLAENPEYENEKLTKLRNTIMEQYTRTEESARGIIFTKTRQSAYALSQWITENEKFAEVGVKAHHLIGAGHSSEFKPMTQNEQKEVISKFRTGKINLLIATTVAEEGLDIKECNIVIRYGLVTNEIAMVQARGRARADESTYVLVAHSGSGVIEHETVNDFREKMMYKAIHCVQNMKPEEYAHKILELQMQSIMEKKMKTKRNIAKHYKNNPSLITFLCKNCSVLACSGEDIHVIEKMHHVNMTPEFKELYIVRENKALQKKCADYQINGEIICKCGQAWGTMMVHKGLDLPCLKIRNFVVVFKNNSTKKQYKKWVELPITFPNLDYSECCLFSDED |
|  |  | binds | MDA5 (construct of the supplementary figures not shown) (protein, UniProt Q9BYX4 1-1025) MSNGYSTDENFRYLISCFRARVKMYIQVEPVLDYLTFLPAEVKEQIQRTVATSGNMQAVELLLSTLEKGVWHLGWTREFVEALRRTGSPLAARYMNPELTDLPSPSFENAHDEYLQLLNLLQPTLVDKLLVRDVLDKCMEEELLTIEDRNRIAAAENNGNESGVRELLKRIVQKENWFSAFLNVLRQTGNNELVQELTGSDCSESNAEIENLSQVDGPQVEEQLLSTTVQPNLEKEVWGMENNSSESSFADSSVVSESDTSLAEGSVSCLDESLGHNSNMGSDSGTMGSDSDEENVAARASPEPELQLRPYQMEVAQPALEGKNIIICLPTGSGKTRVAVYIAKDHLDKKKKASEPGKVIVLVNKVLLVEQLFRKEFQPFLKKWYRVIGLSGDTQLKISFPEVVKSCDIIISTAQILENSLLNLENGEDAGVQLSDFSLIIIDECHHTNKEAVYNNIMRHYLMQKLKNNRLKKENKPVIPLPQILGLTASPGVGGATKQAKAEEHILKLCANLDAFTIKTVKENLDQLKNQIQEPCKKFAIADATREDPFKEKLLEIMTRIQTYCQMSPMSDFGTQPYEQWAIQMEKKAAKEGNRKERVCAEHLRKYNEALQINDTIRMIDAYTHLETFYNEEKDKKFAVIEDDSDEGGDDEYCDGDEDEDDLKKPLKLDETDRFLMTLFFENNKMLKRLAENPEYENEKLTKLRNTIMEQYTRTEESARGIIFTKTRQSAYALSQWITENEKFAEVGVKAHHLIGAGHSSEFKPMTQNEQKEVISKFRTGKINLLIATTVAEEGLDIKECNIVIRYGLVTNEIAMVQARGRARADESTYVLVAHSGSGVIEHETVNDFREKMMYKAIHCVQNMKPEEYAHKILELQMQSIMEKKMKTKRNIAKHYKNNPSLITFLCKNCSVLACSGEDIHVIEKMHHVNMTPEFKELYIVRENKALQKKCADYQINGEIICKCGQAWGTMMVHKGLDLPCLKIRNFVVVFKNNSTKKQYKKWVELPITFPNLDYSECCLFSDED |
